Test results published in patent publication US20190367618A1 (SHANGHAI JUNSHI BIOSCIENCES, published 2019).
Where a chain is given by its changes, count along the chain named. No constants are given. Whether binding was seen depends on the method and setting. Some results given as binding are weak or reduced against the parent protein; the word gives no strength. Each block holds one binder with its values, some of them ahead of it.

By UniProt entry, the sequences of proteins in these tests, tags left out. Residues count along the entry.
UniProt Q9NZQ7, residues 19-290: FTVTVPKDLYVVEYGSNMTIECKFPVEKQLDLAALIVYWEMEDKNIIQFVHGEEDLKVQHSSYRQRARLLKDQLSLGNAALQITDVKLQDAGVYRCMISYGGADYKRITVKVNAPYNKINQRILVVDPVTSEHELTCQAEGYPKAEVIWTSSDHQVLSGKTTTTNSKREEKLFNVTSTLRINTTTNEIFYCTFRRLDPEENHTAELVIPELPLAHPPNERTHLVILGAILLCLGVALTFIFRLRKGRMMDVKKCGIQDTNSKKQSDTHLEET

Target: T1, PD-L1 on 293F cells (UniProt Q9NZQ7 19-290, limits assumed)
T1 construct: whole, on cells
Experiment: flow cytometry on 293F cells expressing PD-L1
Description: Antibody (humanized antibodies 30, 38) dilutions at different concentrations was added in a volume of 50 μl, mixed and incubated at room temperature for 30 min. The cells were washed twice with FACS buffer, contacted with 100 μl of goat anti-human IgG-PE antibody, and incubated for 30 min in the dark. FACS was performed after washing twice with FACS buffer.

binding: binds
B1: humanized antibody 30 (antibody, V domains shown)
VH: QGQLQESGPSLVKPSQTLSLTCTVSGDSITRGYWNWIRKHPGKGLEYIGYISYTGSTYSNLSLKSRVTISRDTSKNQYYLKLSSVTAADTAVYYCATSTGWLDPVDYWGQGTLVTVSS
VL: DIVMTQSPDSLAVSLGERATINCKASQNVDTSVAWFQQKPGQPPKALIYSASFRYSGVPDRFSGSGSGTDFTLTISSLQAEDVAVYFCQQYYGYPFTFGQGTKLEIK

binding: binds
B2: humanized antibody 38 (antibody, V domains shown)
VH: B1 VH with H40P
VL: DIQMTQSPSSLSASVGDRVTITCRASQNVDTSVAWFQQKPGKAPKALIYSASFRYSGVPSRFSGSGSGTDFTLTISSLQPEDFATYFCQQYYGYPFTFGQGTKLEIK
